Source: patent CN114106195A
Results are given in words; binding and its absence hold for the method and conditions named. Some binding calls cover weakened binding; strength is not graded here.

Target: T1, B7H3 (on MCF-7 cells) (UniProt Q5ZPR3)
T1 sequence (looked up): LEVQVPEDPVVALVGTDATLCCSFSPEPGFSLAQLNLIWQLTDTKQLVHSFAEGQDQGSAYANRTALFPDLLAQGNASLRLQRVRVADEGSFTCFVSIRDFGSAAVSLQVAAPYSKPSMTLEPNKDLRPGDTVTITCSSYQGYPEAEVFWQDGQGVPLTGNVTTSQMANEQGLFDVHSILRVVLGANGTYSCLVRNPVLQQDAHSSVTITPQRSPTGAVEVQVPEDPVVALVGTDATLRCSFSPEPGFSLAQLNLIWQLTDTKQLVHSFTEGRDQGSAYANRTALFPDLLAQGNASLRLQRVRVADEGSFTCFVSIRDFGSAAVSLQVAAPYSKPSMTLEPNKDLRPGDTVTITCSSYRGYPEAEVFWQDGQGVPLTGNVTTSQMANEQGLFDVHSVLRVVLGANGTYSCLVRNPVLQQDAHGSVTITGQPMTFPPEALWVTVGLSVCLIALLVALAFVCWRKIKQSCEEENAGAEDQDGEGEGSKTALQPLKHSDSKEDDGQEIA
Assay: flow cytometry on MCF-7 cells, FITC anti-human IgG F(ab')2

B1: B7H3嵌合抗体 (antibody, human IgG1, kappa, V domains shown)
VH: QVQLQQSGAELVKPGASVKLSCKASGYTFTNYDINWVRQRPEQGLEWIGWIFPGDGSTQYNEKFKGKATLTTDTSSSTAYMQLSRLTSEDSAVYFCARQTTATWFAYWGQGTLVTVSA
VL: DIVMTQSPATLSVTPGDRVSLSCRASQSISDYLHWYQQKSHESPRLLIKYASQSISGIPSRFSGSGSGSDFTLSINSVEPEDVGVYYCQNGHSFPLTFGAGTKLELKR
B1 was tested, and the binding was “binds”.
